Assay results as given in the supplement of paper PMC10849652.
Some of the results follow.

Chains of the proteins cited; added tags and fusions are not shown. Lines headed by an entry give the natural chain unless they say otherwise; changes in a name come on top.
UniProt Q9Y2V7: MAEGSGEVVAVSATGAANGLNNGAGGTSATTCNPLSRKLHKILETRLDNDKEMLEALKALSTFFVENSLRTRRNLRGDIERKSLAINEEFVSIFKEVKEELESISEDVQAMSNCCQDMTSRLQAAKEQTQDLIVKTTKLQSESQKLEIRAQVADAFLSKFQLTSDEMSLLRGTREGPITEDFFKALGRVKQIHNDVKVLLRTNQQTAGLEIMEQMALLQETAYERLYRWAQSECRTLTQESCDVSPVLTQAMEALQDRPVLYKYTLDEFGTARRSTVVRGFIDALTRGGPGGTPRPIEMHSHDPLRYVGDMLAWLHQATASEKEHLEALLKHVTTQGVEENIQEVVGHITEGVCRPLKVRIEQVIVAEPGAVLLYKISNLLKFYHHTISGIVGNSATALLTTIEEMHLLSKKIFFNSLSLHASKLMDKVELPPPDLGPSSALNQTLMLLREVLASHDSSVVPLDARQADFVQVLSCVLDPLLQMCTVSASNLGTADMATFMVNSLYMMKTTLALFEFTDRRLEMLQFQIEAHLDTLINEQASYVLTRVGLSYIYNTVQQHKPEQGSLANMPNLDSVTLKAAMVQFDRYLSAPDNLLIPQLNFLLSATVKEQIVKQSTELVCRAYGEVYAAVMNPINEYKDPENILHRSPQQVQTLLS
UniProt P50416: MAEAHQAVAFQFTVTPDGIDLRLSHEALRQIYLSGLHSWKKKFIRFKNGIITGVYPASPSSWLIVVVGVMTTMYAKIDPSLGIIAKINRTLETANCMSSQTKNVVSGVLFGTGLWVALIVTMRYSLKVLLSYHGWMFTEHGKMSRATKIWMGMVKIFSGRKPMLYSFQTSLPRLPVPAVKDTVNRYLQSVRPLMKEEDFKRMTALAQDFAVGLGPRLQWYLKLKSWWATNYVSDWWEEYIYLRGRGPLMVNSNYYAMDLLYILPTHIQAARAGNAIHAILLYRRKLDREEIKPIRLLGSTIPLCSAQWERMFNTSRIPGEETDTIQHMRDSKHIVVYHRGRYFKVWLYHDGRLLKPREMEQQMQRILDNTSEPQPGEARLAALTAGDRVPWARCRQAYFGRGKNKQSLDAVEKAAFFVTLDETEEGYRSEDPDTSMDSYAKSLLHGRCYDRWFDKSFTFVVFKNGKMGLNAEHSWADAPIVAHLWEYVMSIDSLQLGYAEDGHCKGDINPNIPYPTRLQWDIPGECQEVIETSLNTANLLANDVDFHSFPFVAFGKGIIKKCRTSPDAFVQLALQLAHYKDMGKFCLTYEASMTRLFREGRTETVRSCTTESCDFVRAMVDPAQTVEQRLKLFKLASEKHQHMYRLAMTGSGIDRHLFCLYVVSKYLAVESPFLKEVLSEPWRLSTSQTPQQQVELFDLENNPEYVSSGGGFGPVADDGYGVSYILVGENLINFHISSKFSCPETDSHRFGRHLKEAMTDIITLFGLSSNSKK
UniProt Q13057: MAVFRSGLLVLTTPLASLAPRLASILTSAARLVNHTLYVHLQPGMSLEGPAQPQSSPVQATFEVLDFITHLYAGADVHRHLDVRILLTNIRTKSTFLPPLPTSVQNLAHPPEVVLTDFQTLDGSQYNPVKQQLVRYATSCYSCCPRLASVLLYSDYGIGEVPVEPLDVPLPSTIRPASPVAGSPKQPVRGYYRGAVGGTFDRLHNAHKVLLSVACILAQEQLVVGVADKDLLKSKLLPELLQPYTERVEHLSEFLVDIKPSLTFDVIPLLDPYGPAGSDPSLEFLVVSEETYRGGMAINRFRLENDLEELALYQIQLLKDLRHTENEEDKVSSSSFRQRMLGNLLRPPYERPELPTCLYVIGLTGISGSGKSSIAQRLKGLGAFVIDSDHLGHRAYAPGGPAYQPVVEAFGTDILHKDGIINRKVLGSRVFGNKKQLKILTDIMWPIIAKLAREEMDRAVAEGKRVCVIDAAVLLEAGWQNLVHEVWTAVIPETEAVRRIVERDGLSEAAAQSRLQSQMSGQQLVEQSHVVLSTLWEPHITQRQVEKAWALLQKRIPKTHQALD
UniProt Q17RY0: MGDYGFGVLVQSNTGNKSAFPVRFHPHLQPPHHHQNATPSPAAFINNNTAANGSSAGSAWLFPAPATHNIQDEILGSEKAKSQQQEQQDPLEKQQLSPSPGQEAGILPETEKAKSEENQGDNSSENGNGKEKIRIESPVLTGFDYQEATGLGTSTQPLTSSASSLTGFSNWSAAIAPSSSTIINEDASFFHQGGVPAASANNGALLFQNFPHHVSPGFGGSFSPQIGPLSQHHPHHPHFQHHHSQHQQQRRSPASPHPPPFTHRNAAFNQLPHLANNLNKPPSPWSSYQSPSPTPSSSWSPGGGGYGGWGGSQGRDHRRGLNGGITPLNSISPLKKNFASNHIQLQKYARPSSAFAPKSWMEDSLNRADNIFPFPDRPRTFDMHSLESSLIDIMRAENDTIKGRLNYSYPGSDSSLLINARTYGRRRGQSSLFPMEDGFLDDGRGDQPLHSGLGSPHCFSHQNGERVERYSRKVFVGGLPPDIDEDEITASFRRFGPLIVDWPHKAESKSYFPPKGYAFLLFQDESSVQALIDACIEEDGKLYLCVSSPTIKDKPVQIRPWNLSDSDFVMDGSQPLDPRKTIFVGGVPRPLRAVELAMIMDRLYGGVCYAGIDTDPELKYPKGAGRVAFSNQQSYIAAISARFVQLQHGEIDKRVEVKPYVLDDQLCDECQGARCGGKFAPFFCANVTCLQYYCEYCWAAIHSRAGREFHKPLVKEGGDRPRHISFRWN
UniProt P57737: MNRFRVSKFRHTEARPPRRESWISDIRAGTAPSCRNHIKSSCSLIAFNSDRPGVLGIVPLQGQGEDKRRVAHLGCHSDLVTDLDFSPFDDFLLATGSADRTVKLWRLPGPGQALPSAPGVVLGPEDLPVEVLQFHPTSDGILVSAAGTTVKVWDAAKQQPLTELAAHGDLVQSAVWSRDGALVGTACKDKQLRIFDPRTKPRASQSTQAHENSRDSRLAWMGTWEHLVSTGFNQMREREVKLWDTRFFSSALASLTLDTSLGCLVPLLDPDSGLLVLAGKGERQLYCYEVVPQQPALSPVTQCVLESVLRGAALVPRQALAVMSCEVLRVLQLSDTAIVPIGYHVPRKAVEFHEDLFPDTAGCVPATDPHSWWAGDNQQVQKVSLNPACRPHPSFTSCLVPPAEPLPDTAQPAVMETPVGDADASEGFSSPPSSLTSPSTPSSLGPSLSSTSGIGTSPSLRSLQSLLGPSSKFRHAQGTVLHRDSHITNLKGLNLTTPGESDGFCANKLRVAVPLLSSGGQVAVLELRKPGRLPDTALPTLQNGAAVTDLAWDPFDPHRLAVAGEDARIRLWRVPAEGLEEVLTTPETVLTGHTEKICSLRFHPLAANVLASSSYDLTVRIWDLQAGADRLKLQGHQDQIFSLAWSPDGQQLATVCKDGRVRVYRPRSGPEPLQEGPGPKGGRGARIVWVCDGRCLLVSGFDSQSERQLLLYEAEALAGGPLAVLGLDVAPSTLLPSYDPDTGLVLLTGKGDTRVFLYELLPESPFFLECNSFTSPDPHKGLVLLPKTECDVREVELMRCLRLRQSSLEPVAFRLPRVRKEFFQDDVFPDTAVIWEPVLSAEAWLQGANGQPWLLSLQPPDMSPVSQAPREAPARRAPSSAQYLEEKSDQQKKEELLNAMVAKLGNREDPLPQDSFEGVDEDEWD
UniProt Q6PJW8: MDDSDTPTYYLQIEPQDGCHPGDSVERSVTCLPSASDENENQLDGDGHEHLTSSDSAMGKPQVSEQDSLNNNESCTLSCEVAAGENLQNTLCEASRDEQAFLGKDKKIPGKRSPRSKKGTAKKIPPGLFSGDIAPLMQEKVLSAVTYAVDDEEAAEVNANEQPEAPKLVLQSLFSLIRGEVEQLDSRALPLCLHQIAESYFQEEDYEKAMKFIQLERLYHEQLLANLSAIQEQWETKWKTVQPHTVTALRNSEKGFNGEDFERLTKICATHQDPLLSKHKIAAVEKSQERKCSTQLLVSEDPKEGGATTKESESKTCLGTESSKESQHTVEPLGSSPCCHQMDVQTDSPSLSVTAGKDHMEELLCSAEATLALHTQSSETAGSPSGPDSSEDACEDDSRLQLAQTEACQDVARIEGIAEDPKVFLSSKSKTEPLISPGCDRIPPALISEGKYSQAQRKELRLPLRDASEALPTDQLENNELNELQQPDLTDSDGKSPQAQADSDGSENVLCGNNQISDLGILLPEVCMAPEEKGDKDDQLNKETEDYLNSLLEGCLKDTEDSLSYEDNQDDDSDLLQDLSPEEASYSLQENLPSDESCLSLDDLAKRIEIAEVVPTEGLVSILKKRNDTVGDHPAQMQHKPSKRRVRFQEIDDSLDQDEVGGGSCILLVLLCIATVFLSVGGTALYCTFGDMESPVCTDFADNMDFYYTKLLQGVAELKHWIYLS
UniProt Q8IWV2: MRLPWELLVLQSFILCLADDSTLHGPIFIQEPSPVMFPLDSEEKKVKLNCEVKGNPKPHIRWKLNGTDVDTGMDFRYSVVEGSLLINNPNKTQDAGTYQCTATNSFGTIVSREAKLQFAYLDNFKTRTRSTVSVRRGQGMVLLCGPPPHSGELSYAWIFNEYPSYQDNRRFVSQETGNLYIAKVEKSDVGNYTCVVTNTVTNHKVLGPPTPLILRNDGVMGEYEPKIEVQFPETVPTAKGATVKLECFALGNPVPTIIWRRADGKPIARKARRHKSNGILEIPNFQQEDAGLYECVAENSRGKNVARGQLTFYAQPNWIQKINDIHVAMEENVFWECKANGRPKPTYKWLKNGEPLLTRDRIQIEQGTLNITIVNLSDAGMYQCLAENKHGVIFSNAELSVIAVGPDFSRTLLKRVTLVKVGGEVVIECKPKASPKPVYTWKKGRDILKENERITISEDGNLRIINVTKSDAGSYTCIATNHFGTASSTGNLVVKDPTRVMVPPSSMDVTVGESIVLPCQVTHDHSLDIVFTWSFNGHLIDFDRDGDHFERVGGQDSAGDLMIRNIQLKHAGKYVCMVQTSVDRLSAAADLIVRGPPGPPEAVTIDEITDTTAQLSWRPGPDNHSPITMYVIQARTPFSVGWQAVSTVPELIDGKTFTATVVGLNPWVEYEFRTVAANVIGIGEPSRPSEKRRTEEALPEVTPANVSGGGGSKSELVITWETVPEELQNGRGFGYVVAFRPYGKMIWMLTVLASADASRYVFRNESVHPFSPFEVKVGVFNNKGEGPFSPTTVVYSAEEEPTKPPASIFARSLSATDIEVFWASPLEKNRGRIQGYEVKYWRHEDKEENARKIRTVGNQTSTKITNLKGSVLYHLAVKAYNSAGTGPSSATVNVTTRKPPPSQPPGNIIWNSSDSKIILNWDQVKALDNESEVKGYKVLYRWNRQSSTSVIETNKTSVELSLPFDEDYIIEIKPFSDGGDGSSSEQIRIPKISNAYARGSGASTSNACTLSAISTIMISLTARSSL
UniProt P23786: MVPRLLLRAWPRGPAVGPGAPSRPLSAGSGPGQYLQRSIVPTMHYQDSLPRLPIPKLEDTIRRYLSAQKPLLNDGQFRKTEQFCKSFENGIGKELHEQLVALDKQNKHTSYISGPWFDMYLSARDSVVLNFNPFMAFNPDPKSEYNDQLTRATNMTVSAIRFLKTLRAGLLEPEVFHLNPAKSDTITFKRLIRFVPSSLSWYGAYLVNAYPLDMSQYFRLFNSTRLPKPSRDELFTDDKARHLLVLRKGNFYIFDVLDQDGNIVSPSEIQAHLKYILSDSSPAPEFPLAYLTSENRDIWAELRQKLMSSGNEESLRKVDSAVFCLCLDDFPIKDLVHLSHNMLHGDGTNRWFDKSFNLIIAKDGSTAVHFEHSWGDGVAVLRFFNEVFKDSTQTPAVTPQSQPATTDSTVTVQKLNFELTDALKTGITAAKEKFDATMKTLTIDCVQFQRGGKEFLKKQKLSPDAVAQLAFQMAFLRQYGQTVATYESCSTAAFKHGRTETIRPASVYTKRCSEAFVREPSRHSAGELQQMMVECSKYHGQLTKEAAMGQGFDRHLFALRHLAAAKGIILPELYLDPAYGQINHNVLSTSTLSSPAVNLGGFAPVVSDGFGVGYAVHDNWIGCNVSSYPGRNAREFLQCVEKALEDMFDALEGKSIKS
UniProt Q9BU20: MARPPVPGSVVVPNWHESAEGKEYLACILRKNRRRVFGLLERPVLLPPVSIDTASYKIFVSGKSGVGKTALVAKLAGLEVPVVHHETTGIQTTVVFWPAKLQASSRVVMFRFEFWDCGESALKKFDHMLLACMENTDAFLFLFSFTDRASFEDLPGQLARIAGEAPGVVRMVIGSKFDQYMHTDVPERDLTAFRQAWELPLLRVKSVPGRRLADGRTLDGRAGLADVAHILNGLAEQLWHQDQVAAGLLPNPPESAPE

Experiments:
Assay in all cases: log2 fold change, soluble protein after heating vs DMSO (PISA); higher = thermal stabilisation; K562 lysate, 10 uM; active = over 0.2 and 3.5 SD of the protein, either way, in both replicates (recomputed)
[1] = compound: C#Cc1cccc(Nc2ncnc3cc(OCCOC)c(OCCOC)cc23)c1 [erlotinib]
Procedure, shortened: (§1)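 Dounce homogenisation of K562 pellets in PBS pH 7.4 with 1 mM MgCl2 produced a crude extract, used at 1 mg/mL protein. Exposure to 10 μM compound lasted 30 min, and aliquots were then heated for 3 min across 48°C-58°C, pooled and brought to 0.5% NP-40 at 4°C. The supernatant after 21,000xg for 90 min was quantified by TMTpro 16plex LC-MS/MS with channel sums equalised. Duplicate values are given as log-two fold change in thermal stability relative to solvent controls.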

[2] = compound: C/C(=N\NC(=O)C1=CC(=CC=C1)S(=O)(=O)N2CCOCC2)/C3=C(C=CC(=C3)Cl)O
Procedure, shortened: as §1

[3] = compound: C1=CC(=CC=C1C2=NC3=C(N2)C=C(C=C3)C(=O)N)OC4=CC=C(C=C4)Cl
Procedure, shortened: as §1

[4] = compound: C1=CC2=C(C=CC(=C2)/C=C\3/C(=O)NC(=NCC4=CC=CS4)S3)N=C1
Procedure, shortened: as §1

[5] = compound: C1=CC2=NC=CN=C2C=C1/C=C/3\C(=O)NC(=O)S3
Procedure, shortened: as §1

[6] = compound: C1=CC=C(C=C1)C2=NC(=C(N2)C3=CC=NC=C3)C4=CC(=C(C=C4)Cl)O
Procedure, shortened: as §1

[7] = compound: C1=CC=C2C(=C1)C3=NNC4=CC=CC(=C43)C2=O
Procedure, shortened: as §1

[8] = compound: C1CCN(C1)C(=O)NC2=CC=CC(=C2)NC3=NC=C(C(=N3)NCCC4=CN=CN4)Br
Procedure, shortened: as §1

[9] = compound: C1CN(CCC1(CC2=CC=C(C=C2)Cl)N)C3=NC=NC4=C3C=CN4
Procedure, shortened: as §1

[10] = compound: C1COCCN1CCN2C3=CC=CC=C3N=C2NC(=O)C4=CC(=CC=C4)[N+](=O)[O-] [IRAK-1-4 Inhibitor I]
Procedure, shortened: as §1

[11] = compound: C=CC(=O)N1CCC[C@@H](n2nc(-c3ccc(Oc4ccccc4)cc3)c3c(N)ncnc32)C1 [ibrutinib]
Procedure, shortened: as §1

[12] = compound: CC(=O)c1cnc2ccc(-c3cc(Cl)c(O)c(Cl)c3)nc2c1N[C@H]1CC[C@H](CN(C)C)CC1
Procedure, shortened: as §1

[13] = compound: CC(C)(C)Cn1c(N)nc2ccc(-c3[nH]c(C(C)(C)C)nc3-c3ccc(F)cc3)nc21 [ralimetinib]
Procedure, shortened: as §1

[14] = compound: CC(C)(O)CC(=O)NCCn1ccc2ncnc(Nc3ccc(Oc4cccc(C(F)(F)F)c4)c(Cl)c3)c21
Procedure, shortened: as §1

[15] = compound: CC(C)C1=C2N=C(C=C(N2N=C1)NCC3=CC=CC=C3)NCCCCCCN
Procedure, shortened: as §1

[16] = compound: CC1=C(C(CC(=O)N1)C2=CC=C(C=C2)C(F)(F)F)C(=O)NC3=C(C=C4C(=C3)C=NN4)F
Procedure, shortened: as §1

[17] = compound: CC1=C(C2=C(C=C1)C(=O)C3=CC=CC=C3N2CCCN)C
Procedure, shortened: as §1

[18] = compound: CC1=C(C=C(C=C1)NC(=O)C2=CC(=CC=C2)C(C)(C)C#N)NC3=CC4=C(C=C3)N=CN(C4=O)C
Procedure, shortened: as §1

[19] = compound: CC1=C(C=C(C=C1)NC(=O)C2=CC(=CC=C2)N(C)C)NC(=O)C3=CC=C(C=C3)O
Procedure, shortened: as §1

[20] = compound: CC1=CC=C(C=C1)SC2=C3C=C(SC3=CN=C2)C(=O)N
Procedure, shortened: as §1

Measured: log2 fold change

COG6 (UniProt Q9Y2V7)
inactive: [1] -0.059 | [2] 0.153 | [3] -0.074 | [4] -0.07 | [5] -0.008 | [6] 0.015 | [7] 0.024 | [8] 0.008 | [9] 0.077 | [10] 0.006 | [11] -0.003 | [12] 0.005 | [13] 0.016 | [14] -0.059 | [15] -0.028 | [16] -0.017 | [17] 0.016 | [18] 0.004 | [19] 0.033 | [20] 0.021

COLGALT1 (UniProt Q8NBJ5)
inactive: [1] 0.006 | [2] 0.009 | [3] -0.005 | [4] 0.017 | [5] 0.018 | [6] 0.001 | [7] -0.033 | [8] 0.027 | [9] -0.001 | [10] -0.003 | [11] -0.025 | [12] -0.004 | [13] 0.008 | [14] -0.007 | [15] -0.005 | [16] -0.008 | [17] 0.014 | [18] -0.007 | [19] 0.002 | [20] 0.008

CPSF2 (UniProt Q9P2I0)
inactive: [1] -0.002 | [2] -0.031 | [3] -0.003 | [4] -0.011 | [5] -0.014 | [6] 0.003 | [7] 0.011 | [8] -0.016 | [9] 0.021 | [10] 0.015 | [11] 0.011 | [12] -0.012 | [13] -0.022 | [14] 0.086 | [15] -0.006 | [16] 0.045 | [17] -0.001 | [18] -0.026 | [19] 0.025 | [20] 0.013

CPT1A (UniProt P50416)
inactive: [1] -0.029 | [2] -0.034 | [3] 0.01 | [4] -0.001 | [5] -0.05 | [6] 0.002 | [7] 0.011 | [8] -0.036 | [9] 0.024 | [10] -0.008 | [11] 0.042 | [12] -0.021 | [13] -0.016 | [14] 0.008 | [15] -0.026 | [16] -0.009 | [17] -0.041 | [18] -0.05 | [19] -0.008 | [20] 0.017

COASY isoform 2 (UniProt Q13057)
inactive: [1] 0.006 | [2] -0.049 | [3] -0.044 | [4] -0.007 | [5] 0.022 | [6] -0.018 | [7] -0.05 | [8] -0.019 | [9] 0.024 | [10] -0.019 | [11] 0.024 | [12] -0.015 | [13] 0.103 | [14] 0.002 | [15] -0.003 | [16] 0.013 | [17] -0.001 | [18] -0.013 | [19] 0.037 | [20] 0.014

CPNE7 (UniProt Q9UBL6)
inactive: [1] -0.023 | [2] -0.033 | [3] 0.009 | [4] -0.001 | [5] 0.016 | [6] 0.012 | [7] -0.05 | [8] -0.038 | [9] 0.086 | [10] 0.076 | [11] 0.004 | [12] 0.015 | [13] -0.011 | [14] -0.069 | [15] -0.052 | [16] 0.025 | [17] -0.017 | [18] 0.016 | [19] -0.021 | [20] 0.019

CPEB4 (UniProt Q17RY0)
inactive: [1] -0.166 | [2] -0.016 | [3] 0.016 | [4] -0.044 | [5] 0.084 | [6] -0.034 | [7] -0.068 | [8] -0.025 | [9] 0.085 | [10] 0.013 | [11] 0.018 | [12] 0.006 | [13] 0.121 | [14] 0.16 | [15] -0.023 | [16] -0.028 | [17] -0.065 | [19] -0.076 | [20] 0.093

CORO7 isoform 3 (UniProt P57737)
inactive: [1] 0.035 | [2] -0.009 | [3] -0.079 | [4] 0.013 | [5] 0 | [6] 0.016 | [7] -0.016 | [8] 0.009 | [9] 0.026 | [10] -0.04 | [11] -0.01 | [12] 0.002 | [13] 0.016 | [14] 0.031 | [15] 0.009 | [16] -0.013 | [17] -0.006 | [18] -0.006 | [19] 0.02 | [20] 0.005

Looked up one by one from the entries so far (2):
COLGALT1 (UniProt Q8NBJ5)
inactive: [1] 0.006 | [2] 0.009 | [3] -0.005 | [4] 0.017 | [5] 0.018 | [6] 0.001 | [7] -0.033 | [8] 0.027 | [9] -0.001 | [10] -0.003 | [11] -0.025 | [12] -0.004 | [13] 0.008 | [14] -0.007 | [15] -0.005 | [16] -0.008 | [17] 0.014 | [18] -0.007 | [19] 0.002 | [20] 0.008

CORO7 isoform 3 (UniProt P57737)
inactive: [1] 0.035 | [2] -0.009 | [3] -0.079 | [4] 0.013 | [5] 0 | [6] 0.016 | [7] -0.016 | [8] 0.009 | [9] 0.026 | [10] -0.04 | [11] -0.01 | [12] 0.002 | [13] 0.016 | [14] 0.031 | [15] 0.009 | [16] -0.013 | [17] -0.006 | [18] -0.006 | [19] 0.02 | [20] 0.005

Later entries

CNST (UniProt Q6PJW8)
inactive: [1] 0.044 | [2] -0.013 | [3] 0.05 | [4] 0.01 | [5] -0.004 | [6] 0.007 | [7] -0.054 | [8] -0.022 | [9] 0.036 | [10] 0.023 | [11] 0 | [12] 0.006 | [13] 0.031 | [14] 0.022 | [15] 0.012 | [16] 0.176 | [17] -0.01 | [18] -0.035 | [19] 0.006 | [20] -0.002

CNTN4 (UniProt Q8IWV2)
inactive: [1] 0.053 | [2] 0.063 | [3] 0.138 | [4] -0.03 | [5] 0.053 | [6] 0.046 | [7] -0.203 | [8] -0.124 | [9] 0.138 | [10] 0.119 | [11] -0.043 | [12] -0.154 | [13] -0.286 | [14] -0.341 | [15] 0.094 | [16] -0.077 | [18] 0.312 | [19] -0.039 | [20] -0.141

CPT2 (UniProt P23786)
inactive: [1] -0.04 | [2] 0.094 | [3] -0.039 | [4] 0.001 | [5] 0.015 | [6] 0.019 | [7] -0.008 | [8] -0.038 | [9] -0.028 | [10] 0.06 | [11] 0.116 | [12] -0.027 | [13] -0.029 | [14] -0.067 | [15] 0.134 | [16] 0.018 | [17] -0.123 | [18] 0.047 | [19] 0.048 | [20] -0.047

CPLANE2 (UniProt Q9BU20)
inactive: [1] -0.333 | [3] -0.134 | [6] -0.226 | [10] 0.178 | [13] -0.319 | [14] -0.114 | [15] 0.178 | [18] 0 | [19] 0.115
